From paper PMC10512259
These are yes or no findings as the source states them, for the method shown. In cells and extracts the contact can be indirect. Binding calls can cover weak binding; strength is not graded here. Where a sequence is shown, tags or fusion partners need not be part of it.

Biological target: NV-GCN4 (C. albicans Gcn4 tagged at its N-terminus with the N-terminal part of yEmVenus) (Candida albicans)
Assay: split reporter; reconstitution of yEmVenus in living C. albicans cells; fusion proteins under the MET3 promoter, induced 3-4 h at 30°C in medium without methionine and cysteine; epifluorescence microscopy

B1: CV-MBF1 (C. albicans Mbf1 tagged at its N-terminus with the C-terminal part of yEmVenus) (protein, UniProt Q5A940 1-151)
chain: MSSDWDSVTIIGQKARVGGGGPRENVAKTSSQLNAARRAGLVVGTEKKYGTANTKSNPEGQRLTKLDATDDVVAVKKVDVSVGKAIQQARQEKKLTQKELATKVNEKPNVINDYEAGRAIPNQQLLAKLERALGVKLRGKNIGEPLFAKKK
B1 was tested, and the binding was “binds”.
